Source: PubChem BioAssay AID1259308 (NCATS, 2017)

- Aim: 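Genes whose loss raises luciferase production in HEK293 cells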 (primary screen)
- Cells: human HEK293 embryonic kidney cells stably expressing firefly luciferase (HEK-CMV-Luc2-Hygro)
- Reagent: single siRNA against human genes, 0.8 pmol siRNA per well
- Duration: 72 h
- Measured: 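Luciferase light (ONE-Glo) measured on one replicate plate set and viability (CellTiter-Glo) on the other, scaled to a negative control siRNA, with robust z-scores and luciferase per cell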
- Scale: total luciferase, z-score: higher = more reporter protein produced
- Rule for the call: 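An siRNA counts as active if its total luciferase robust z-score exceeds 3; genes with two or more such siRNAs out of three were retested with fresh siRNAs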
- Meaning of the calls: active = raised luciferase; inactive = no rise
Shown is one part, drawn at random, of about 59,000 reagents tested. Of all reagents, about 1,510 (2.6%) are marked active. 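Calls use total luciferase alone and ignore viability, so some active siRNAs may act by altering cell number.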 Reagents against one gene are numbered here. Not all columns of the deposit are shown.

What did the screen give for CALHM2 #1?
total luciferase, z-score: -0.228; Call: inactive

What did the screen give for CALHM2 #2?
total luciferase, z-score: -0.83; Call: inactive

What is on record for CALHM2 #3?
total luciferase, z-score: -0.256; Call: inactive

What is on record for NRN1L #1?
total luciferase, z-score: 0.574; Call: inactive

For NRN1L #2, what was measured?
total luciferase, z-score: 1.15; Call: inactive

For NRN1L #3, what was measured?
total luciferase, z-score: -1.02; Call: inactive

How did the screen score PTGDR #1?
total luciferase, z-score: -1.34; Call: inactive

Which result is listed for PTGDR #2?
total luciferase, z-score: -0.77; Call: inactive

What is on record for PTGDR #3?
total luciferase, z-score: -0.479; Call: inactive

For RPSAP47 #1, what does the deposit list?
total luciferase, z-score: -1.25; Call: inactive

What did the screen give for RPSAP47 #2?
total luciferase, z-score: -2.38; Call: inactive

How did the screen score RPSAP47 #3?
total luciferase, z-score: -2.89; Call: inactive

Which result is listed for PDPN #1?
total luciferase, z-score: 1.26; Call: inactive

What did the screen give for PDPN #2?
total luciferase, z-score: -0.502; Call: inactive

What is on record for PDPN #3?
total luciferase, z-score: 0.996; Call: inactive

With ZNF544 #1, what does the deposit list?
total luciferase, z-score: -0.247; Call: inactive

For ZNF544 #2, how do the results read?
total luciferase, z-score: -0.534; Call: inactive

With ZNF544 #3, what was measured?
total luciferase, z-score: -1.25; Call: inactive

What is on record for DCAF12 #1?
total luciferase, z-score: -0.586; Call: inactive

What is on record for DCAF12 #2?
total luciferase, z-score: 0.663; Call: inactive

What did the screen give for DCAF12 #3?
total luciferase, z-score: 0.824; Call: inactive

How did the screen score LSMEM2 #1?
total luciferase, z-score: -0.346; Call: inactive

What did the screen give for LSMEM2 #2?
total luciferase, z-score: -0.00601; Call: inactive

With LSMEM2 #3, what does the deposit list?
total luciferase, z-score: -0.185; Call: inactive

What is on record for SFR1P2 #1?
total luciferase, z-score: 1.21; Call: inactive

For SFR1P2 #2, what does the deposit list?
total luciferase, z-score: 0.889; Call: inactive

Which result is listed for SFR1P2 #3?
total luciferase, z-score: -0.15; Call: inactive

What did the screen give for RPS8P4 #1?
total luciferase, z-score: -2.55; Call: inactive

How did the screen score RPS8P4 #2?
total luciferase, z-score: 1.78; Call: inactive

For RPS8P4 #3, what does the deposit list?
total luciferase, z-score: 0.184; Call: inactive

What is on record for P2RX1 #1?
total luciferase, z-score: 0.18; Call: inactive

For P2RX1 #2, what was measured?
total luciferase, z-score: 1.01; Call: inactive

With P2RX1 #3, what was measured?
total luciferase, z-score: -0.22; Call: inactive

Reformatted: results already given.
{"target": "PTGDR", "reagent": 1, "total luciferase, z-score": -1.34, "Call": "inactive"}
{"target": "PTGDR", "reagent": 2, "total luciferase, z-score": -0.77, "Call": "inactive"}
{"target": "PTGDR", "reagent": 3, "total luciferase, z-score": -0.479, "Call": "inactive"}
